Data published in publication PMC4549789.

Target: Acidiphilium IS1634 transposase, wild type (Acidiphilium sp. PM)
Test: pull-down; 12 μM Tnp covalently coupled to tosyl-activated magnetic beads (Dynabeads M-280); 5 μM β labeled with Alexa Fluor 350 (or labelled PCNA) in solution; PBS, 0.1% Tween-20, 0.1% BSA, pH 7.2; 15 min, 25 °C; three washes; SDS-PAGE, UV; both purified

B1: Leptospirillum ferrooxidans β sliding clamp (protein, UniProt I0IKD4 1-385)
chain: MEIIVDQETFLDGVQRIAALTDRKNAALVGSQVLLDAQGETVTLYASDTQTGGRFELPAKVLAPGKTTVPGKTLFNLIRQLPPGDLTITRDASGLTRIERERIQNSLKGINPDEFNVFPEITAEYSFLVPLGAFLDQLKKSLPFASDEEGKPLNGILLTRELGDKGQPILNMVSTDGHRLHHGVILLGEDAGGSVTGQSESRFILKKRNLQELAHVLELDAKDPNMSIEIVLNPKYVTFRWGRFYYFARLLSTPYPNYKEAFPQDFTVGVEISRESLDSALKRVSVVSDKKPEVIFDWNDRFLVLRTMNEEIGESIETIPAFVRGESGSLIFKIDFLRVLLAVTSGETIRFDVRYGKEYGAKDSMPVIWRALDDPHSRYVLMPMG
modifications: labeled with Alexa Fluor 350 C5-maleimide
How did the binding turn out when B1 was run?
The binding was “binds”.

Results are given in words; binding and its absence hold for the method and conditions named. Binding calls can cover weak binding; strength is not graded here.
